From PMC8062530
Results are given in words; binding and its absence hold for the method and conditions named. Some results given as binding are weak or reduced against the parent protein; the word gives no strength. Tags and fused reporters may be left off the sequences shown.

Amino acid sequences for entries named in this document (tags omitted). Residues count along the entry.
UniProt Q9Y336, residues 18-348: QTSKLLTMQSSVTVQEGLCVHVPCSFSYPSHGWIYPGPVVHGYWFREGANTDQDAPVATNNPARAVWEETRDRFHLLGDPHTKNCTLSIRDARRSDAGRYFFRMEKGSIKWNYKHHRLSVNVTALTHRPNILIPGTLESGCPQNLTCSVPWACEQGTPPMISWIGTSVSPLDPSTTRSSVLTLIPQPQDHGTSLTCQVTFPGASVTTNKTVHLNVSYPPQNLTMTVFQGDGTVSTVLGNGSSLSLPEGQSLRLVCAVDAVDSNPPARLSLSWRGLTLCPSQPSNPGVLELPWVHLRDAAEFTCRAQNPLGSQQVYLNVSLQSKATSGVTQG

Columns and labels:
Test in all cases: BLI; Fc-fusions of the Siglec proteins immobilised on Protein A biosensors (ForteBio) at 5 µg/mL; PTGFRN extracellular domain in 2-fold serial dilutions starting at 100 µg/mL; equilibrium dissociation constants calculated with ForteBio Data Analysis software v. 10.0; both purified
Siglec-14 Fc-fusion = target: T1, Siglec-14 Fc-fusion (UniProt Q08ET2)
T1 sequence: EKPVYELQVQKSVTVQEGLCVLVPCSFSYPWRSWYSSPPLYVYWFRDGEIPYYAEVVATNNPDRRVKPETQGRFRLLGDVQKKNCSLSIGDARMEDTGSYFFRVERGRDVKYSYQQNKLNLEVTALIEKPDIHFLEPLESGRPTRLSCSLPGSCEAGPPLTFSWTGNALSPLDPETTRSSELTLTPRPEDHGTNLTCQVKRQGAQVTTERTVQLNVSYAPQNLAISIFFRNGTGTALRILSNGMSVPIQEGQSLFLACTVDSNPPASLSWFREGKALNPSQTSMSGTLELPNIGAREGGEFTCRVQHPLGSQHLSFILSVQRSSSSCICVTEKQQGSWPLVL

Siglec-10 Fc-fusion = target: T2, Siglec-10 Fc-fusion (UniProt Q96LC7)
T2 sequence: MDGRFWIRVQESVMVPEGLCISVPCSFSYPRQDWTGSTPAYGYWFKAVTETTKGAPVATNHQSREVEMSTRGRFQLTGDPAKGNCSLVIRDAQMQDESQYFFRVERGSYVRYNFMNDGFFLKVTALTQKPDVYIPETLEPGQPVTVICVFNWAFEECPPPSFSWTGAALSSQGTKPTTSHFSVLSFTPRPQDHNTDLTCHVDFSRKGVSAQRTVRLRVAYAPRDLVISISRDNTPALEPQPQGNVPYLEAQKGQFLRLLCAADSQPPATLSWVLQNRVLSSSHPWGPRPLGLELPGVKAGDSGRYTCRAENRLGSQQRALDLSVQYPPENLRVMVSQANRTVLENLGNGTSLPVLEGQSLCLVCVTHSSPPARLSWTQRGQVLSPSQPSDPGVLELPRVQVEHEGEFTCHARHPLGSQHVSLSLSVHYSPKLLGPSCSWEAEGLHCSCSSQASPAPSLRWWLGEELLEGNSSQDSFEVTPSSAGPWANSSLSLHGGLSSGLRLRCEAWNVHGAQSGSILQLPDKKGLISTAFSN

Siglec-9 Fc-fusion = Siglec-9 Fc-fusion (UniProt Q9Y336)

binding (Siglec-14 Fc-fusion): binds
binding (Siglec-10 Fc-fusion): binds
binding (Siglec-9 Fc-fusion): binds
B1: extracellular domain of PTGFRN (aa 26-832) with a C-terminal histidine tag (domain or fragment, UniProt Q9P2B2 26-832)
chain: VPTATLVRVVGTELVIPCNVSDYDGPSEQNFDWSFSSLGSSFVELASTWEVGFPAQLYQERLQRGEILLRRTANDAVELHIKNVQPSDQGHYKCSTPSTDATVQGNYEDTVQVKVLADSLHVGPSARPPPSLSLREGEPFELRCTAASASPLHTHLALLWEVHRGPARRSVLALTHEGRFHPGLGYEQRYHSGDVRLDTVGSDAYRLSVSRALSADQGSYRCIVSEWIAEQGNWQEIQEKAVEVATVVIQPSVLRAAVPKNVSVAEGKELDLTCNITTDRADDVRPEVTWSFSRMPDSTLPGSRVLARLDRDSLVHSSPHVALSHVDARSYHLLVRDVSKENSGYYYCHVSLWAPGHNRSWHKVAEAVSSPAGVGVTWLEPDYQVYLNASKVPGFADDPTELACRVVDTKSGEANVRFTVSWYYRMNRRSDNVVTSELLAVMDGDWTLKYGERSKQRAQDGDFIFSKEHTDTFNFRIQRTTEEDRGNYYCVVSAWTKQRNNSWVKSKDVFSKPVNIFWALEDSVLVVKARQPKPFFAAGNTFEMTCKVSSKNIKSPRYSVLIMAEKPVGDLSSPNETKYIISLDQDSVVKLENWTDASRVDGVVLEKVQEDEFRYRMYQTQVSDAGLYRCMVTAWSPVRGSLWREAATSLSNPIEIDFQTSGPIFNASVHSDTPSVIRGDLIKLFCIITVEGAALDPDDMAFDVSWFAVHSFGLDKAPVLLSSLDRKGIVTTSRRDWKSDLSLERVSVLEFLLQVHGSEDQDFGNYYCSVTPWVKSPTGSWQKEAEIHSKPVFITVKMDVLNAFKYP
